# Assay results: PubChem BioAssay AID445 (National Center for Advancing Translational Sciences (NCATS), 2006)
# The other results are listed elsewhere or left out. Shown are side measurements of this screen, not its main read-out; they come without a call. Compounds called inactive in the main read-out are mostly missing here. The note in brackets gives the kind of curve behind each potency; many fits are weak.
# Test: IkB Signaling
# Conditions: ABC-DLBCL IkBa-CBG/CBR dual luciferase ratio (green luciferase fused to IkBa over red control in OCI-Ly3 lymphoma cells), 4 h
# How it was run: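 Curves were fitted separately to fusion (green), unfused (red) and ratio luminescence, then classed by r2, magnitude and activity. Cells: OCI-Ly3, 4 h compound plus doxycycline at 37C; 10 uM MG-132 defined full response.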
# [1] = measured here: control luc red channel unless noted
# [2] = measured here: IkB-luc green channel
# [3] = measured here: control luc red channel
smiles,measurement,setting,value
CCN(CC)S(=O)(=O)c1cccc(-c2nnc(SCC(=O)c3ccc(Cl)s3)n2C)c1,AC50,[1],"25.1 µM [falling, partial curve]"
O=C(CCCCn1c(=O)[nH]c2ccccc2c1=O)NCCc1c[nH]c2ccccc12,AC50,[1],"15.8 µM [falling, partial curve]"
Cc1ccc(OC(=O)CSc2nnc(-c3ccc4c(c3)OCO4)o2)c(C)c1,AC50,[1],"7.94 µM [falling, partial curve]"
COC(=O)c1cccc(NC(=O)CSc2nnc(COc3ccc(C#N)cc3)n2-c2ccccc2)c1,AC50,[2],"5.01 µM [falling, partial curve]"
same,AC50,[3],"10 µM [falling, partial curve]"
COc1ccc2c(c1)c1c(c(=O)n(-c3ccc(F)c(Cl)c3)c(=O)n1Cc1ccccc1F)n2C,AC50,[1],"0.251 µM [rising, partial curve]"
COc1ccccc1NC(=O)C(=O)c1cc(C)n(-c2cc(C)cc(C)c2)c1C,AC50,[1],"25.1 µM [falling, partial curve]"
O=C1CN(C(=O)c2cccc(Br)c2)C(c2ccccc2)c2cc(Cl)ccc2N1 (centres undefined),AC50,[1],"2 µM [rising, single point]"
CCOc1cccc(-c2nc3ccccc3c(=O)o2)c1,AC50,[2],"6.31 µM [rising, single point]"
same,AC50,[3],"12.6 µM [falling, partial curve]"
COc1cccc(C(=O)Nc2nc(-c3nnn(-c4cc(C)ccc4C)c3C)ns2)c1,AC50,[1],"15.8 µM [falling, partial curve]"
CC(C)CN(c1ccccc1)S(=O)(=O)c1nnc(NC(=O)C2CCCCC2)s1,AC50,[1],"1.58 µM [rising, partial curve]"
Cc1ccc(-c2nc(CS(=O)(=O)CC(=O)NC(C)CCc3ccccc3)c(C)o2)cc1 (centres undefined),AC50,[1],"15.8 µM [falling, partial curve]"
Cc1c(NC(=O)Nc2cccc(C(F)(F)F)c2)sc2nc3n(c(=O)c12)CCC(C)CC3 (centres undefined),AC50,[1],"31.6 µM [falling, partial curve]"
O=C(CCS(=O)(=O)c1ccccc1)N(Cc1cccnc1)c1nc2c(F)cccc2s1,AC50,[1],"39.8 µM [falling, single point]"
CCc1ccccc1NC(=O)Cn1nnc(C(=O)NCc2ccco2)c1N,AC50,[1],"2 µM [rising, full curve]"
COC(=O)c1c(C)n(-c2ccc(OC)cc2)c2ccc(O)cc12,AC50,[1],"10 µM [falling, partial curve]"
O=C(O)CCc1ccc(-c2ccc(Br)cc2)n1-c1ccccc1O,AC50,[1],"15.8 µM [falling, partial curve]"
CCOC(=O)C1CCN(c2cc3c(cc2NC(=O)c2ccccc2Cl)n(C)c(=O)n3C)CC1,AC50,[1],"15.8 µM [falling, partial curve]"
CCCCN(CC)CCNC(=O)Cn1cnc2sc(C)c(S(=O)(=O)N3CCN(c4ccccc4OC)CC3)c2c1=O,AC50,[1],"12.6 µM [falling, partial curve]"
CCOc1ccc(N2CC(c3nc4ccccc4n3CCOc3ccc(OC)cc3)CC2=O)cc1 (centres undefined),AC50,[1],"39.8 µM [falling, single point]"
CC(C)Cc1nn2cc(-c3cccc(Br)c3)nc2s1,AC50,[1],"0.0501 µM [falling, full curve]"
CCOc1ccc2nc(N3CCCC(C(=O)NCCc4ccc(OC)cc4OC)C3)sc2c1 (centres undefined),AC50,[1],"31.6 µM [falling, single point]"
O=C(Nc1ccc(F)c(Cl)c1)c1cc(S(=O)(=O)NCc2ccc3c(c2)OCO3)ccc1F,AC50,[1],"20 µM [falling, partial curve]"
Cc1ccc(CNCc2c(C(=O)O)c(C)n(Cc3ccc(C)cc3)c2C)cc1,AC50,[1],"15.8 µM [falling, partial curve]"
CCn1c(=O)cc(OCC(=O)Nc2cc(OC)c(OC)c(OC)c2)c2ccccc21,AC50,[1],"31.6 µM [falling, partial curve]"
CCc1ccc(S(=O)(=O)c2c(C(=O)c3ccc(C)c(C)c3)cnc3ccccc23)cc1,AC50,[1],"6.31 µM [falling, partial curve]"
CCOc1ccc(CNC(=O)c2ccc3nc(CC)c(CC)nc3c2)cc1OC,AC50,[1],"39.8 µM [falling, partial curve]"
COc1cccc(N2CCN(c3ccc4nnc(CCC(=O)O)n4n3)CC2)c1,AC50,[1],"20 µM [falling, partial curve]"
COc1ccc(CCNC(=O)CCCCCn2c(SCC(N)=O)nc3cc4c(cc3c2=O)OCO4)cc1OC,AC50,[1],"0.126 µM [falling, full curve]"
CCN(CC)S(=O)(=O)c1ccc2c(c1)N(CC(=O)Nc1ccc(F)cc1)C(=O)CO2,AC50,[1],"15.8 µM [falling, partial curve]"
CCOC(=O)Cc1csc(NC(=O)c2ccc(S(=O)(=O)N3CCCCC3)cc2)n1,AC50,[1],"15.8 µM [falling, partial curve]"
Nc1c(-c2nc(-c3ccc(Cl)cc3)no2)nnn1-c1ccc(C(F)(F)F)c(Cl)c1,AC50,[1],"0.0398 µM [rising, full curve]"
COc1cc(NC(=O)c2cc(C3CC3)nc3c2c(C)nn3-c2ccc(C)cc2)cc(OC)c1,AC50,[1],"3.16 µM [falling, partial curve]"
CC(C)(C)C1CCC2(CC1)C(C#N)=C(SCC(=O)NC1CCCCC1)NC(=O)C2C#N (centres undefined),AC50,[1],"7.94 µM [falling, partial curve]"
N#Cc1c(-c2ccco2)nc(SCC(=O)Nc2cccc(Cl)c2)[nH]c1=O,AC50,[1],"2.51 µM [falling, full curve, poor fit]"
COc1ccc(-c2c(C)nn3c(-c4ccccc4)cc(-c4ccccc4)nc23)cc1OC,AC50,[1],"1.26 µM [rising, full curve]"
COc1ccc(CCN2C(=O)c3[nH]nc(-c4ccccc4O)c3C2c2ccc(O)c(OC)c2)cc1 (centres undefined),AC50,[1],"25.1 µM [falling, partial curve]"
COC(=O)c1ccc(NC(=O)CCNS(=O)(=O)c2cccc3nsnc23)cc1,AC50,[1],"39.8 µM [falling, single point]"
O=c1cc(-c2c(F)c(F)c(F)c(F)c2F)oc2c(F)c(F)c(F)c(F)c12,AC50,[1],"3.16 µM [falling, full curve]"
CCC(CC)C(=O)Nc1nnc2n1CCS2,AC50,[1],"0.316 µM [rising, full curve, poor fit]"
O=C(Nc1ccccc1)N1CC=C(c2ccc(F)cc2)CC1,AC50,[1],"3.98 µM [falling, partial curve]"
Cc1ccc(S(=O)(=O)CCC(=O)c2ccc(O)cc2O)cc1,AC50,[1],"31.6 µM [falling, partial curve]"
O=C(CCC1CCCCC1)N1CCN(Cc2ccc3c(c2)OCO3)CC1,AC50,[1],"15.8 µM [falling, partial curve]"
CN(C)c1ccc(CNC(=O)c2ccc(NC(=O)c3nsc4ccccc34)cc2)cc1,AC50,[1],"0.158 µM [falling, full curve]"
Cc1c(C(=O)NCc2ccccc2Cl)cccc1-n1cnc2cccnc21,AC50,[1],"20 µM [falling, partial curve]"
Cc1cccc(CNC(=O)c2ccc3nc(-c4ccccc4)c(-c4ccccc4)nc3c2)c1,AC50,[1],"1 µM [falling, partial curve, poor fit]"
CCC1(c2ccccc2)C(=O)NCNC1=O,AC50,[1],"15.8 µM [rising, partial curve, poor fit] [measured here: IkB-luc green channel]"
Cc1ccc(CCNc2ncnc3onc(C)c23)cc1,AC50,[1],"2.51 µM [falling, partial curve]"
CCC(=O)N1c2ccccc2NC2=C(C(=O)CCC2)C1c1cccnc1 (centres undefined),AC50,[1],"10 µM [falling, partial curve]"
Cc1ccc2occ(CC(=O)N(Cc3ccc(N(C)C)cc3)C3CCS(=O)(=O)C3)c2c1 (centres undefined),AC50,[1],"39.8 µM [falling, single point]"
CCOc1ccc(CNC(=O)CCC(=O)N2CCSc3ccccc32)cc1,AC50,[1],"20 µM [falling, partial curve]"
CC1=Nc2cc(C(=O)NC3CCCC3)ccc2Sc2ccc(Br)cc21,AC50,[2],"3.98 µM [rising, single point]"
same,AC50,[3],"39.8 µM [falling, single point]"
COCCCNC(=O)C1CCCN(S(=O)(=O)c2ccc3c(c2)oc(=O)n3C)C1 (centres undefined),AC50,[1],"12.6 µM [falling, single point]"
CCOCCCn1c(SCC(=O)NCCCOC)nc2c(sc3ccccc32)c1=O,AC50,[1],"15.8 µM [rising, partial curve, poor fit]"
CCOCCCNC(=O)c1c[nH]c2ccc(S(=O)(=O)Nc3cccc(Cl)c3C)cc2c1=O,AC50,[1],"15.8 µM [falling, partial curve]"
Cn1c(=O)oc2cc(S(=O)(=O)N3CCCC(C(=O)N4CCN(c5ccccc5F)CC4)C3)ccc21 (centres undefined),AC50,[1],"15.8 µM [falling, partial curve]"
Cc1ccc(Cn2c(=O)n(CC3CCC(C(=O)N4CCOCC4)CC3)c(=O)c3sccc32)cc1 (centres undefined),AC50,[1],"5.01 µM [rising, full curve, poor fit]"
COC(=O)c1ccccc1NC(=O)C1CCN(S(=O)(=O)c2cc(C)ccc2OC)CC1,AC50,[1],"25.1 µM [falling, single point]"
COC(=O)c1cc2oc3ccccc3c2n1Cc1c(F)cccc1Cl,AC50,[1],"0.2 µM [falling, partial curve, poor fit]"
COc1ccc2nc(N3CCN(C(=O)C4CC4)CC3)sc2c1,AC50,[1],"2 µM [rising, partial curve]"
COc1ccc(NC(=O)N2CCc3c([nH]c4ccc(OC)cc34)C2c2ccc(OC)cc2)cc1 (centres undefined),AC50,[1],"5.01 µM [falling, partial curve]"
CCc1cccc(NC(=O)CN2CCCN(Cc3cccc(C)c3)S2(=O)=O)c1,AC50,[1],"10 µM [falling, partial curve]"

# Fetched one by one from the entries so far, five records:
smiles,measurement,setting,value
CCOc1ccc(CNC(=O)CCC(=O)N2CCSc3ccccc32)cc1,AC50,[1],"20 µM [falling, partial curve]"
COc1cc(NC(=O)c2cc(C3CC3)nc3c2c(C)nn3-c2ccc(C)cc2)cc(OC)c1,AC50,[1],"3.16 µM [falling, partial curve]"
CCC1(c2ccccc2)C(=O)NCNC1=O,AC50,[1],"15.8 µM [rising, partial curve, poor fit] [measured here: IkB-luc green channel]"
Cc1ccc(OC(=O)CSc2nnc(-c3ccc4c(c3)OCO4)o2)c(C)c1,AC50,[1],"7.94 µM [falling, partial curve]"
COc1ccc(CCN2C(=O)c3[nH]nc(-c4ccccc4O)c3C2c2ccc(O)c(OC)c2)cc1 (centres undefined),AC50,[1],"25.1 µM [falling, partial curve]"
